Patent US7737120B2 (Aicuris GmbH & Co. KG, priority 2004, dated 2010)

Assay: peptide synthesis
Conditions: late stage modification step, trifluoroacetate

| Substance | step yield | step yield (run 1) | step yield (run 2) | step yield (run 3) |
| --- | --- | --- | --- | --- |
| D-Leu-Leu-Ala(3-cyclohexyl)-[(3R)-Leu(3-OH)]-Leu-D-Arg-Ile-aThr-Gly-[(3S)-3-Asn(3-OH)]-Ser-trifluoroacetate | 20% of theory |  |  |  |
| D-Leu-Leu-Phe-[(3R)-Leu(3-OH)]-Leu-D-Arg-Ile-aThr-Gly-[(3S)-3-Asn(3-OH)]-Ser-trifluor-oacetate |  | 31% of theory | 33% of theory | 27% of theory |
